# Results published in PubChem BioAssay AID651640 (Broad Institute, 2012).
# Hit rate of the full screen: of about 350,000 compounds, about 6,000 (1.7%) were called active. The inconclusive results got no clear call from the source; some entries with a clear call stand among them for comparison. No stated cut-off is given here; in the data, active means CPE inhibition above about 20% (passing the limit was not always enough); inconclusive means no clear call, values can overlap the other calls; tested in BHK-21 cells.
# Test: protection of cells from dengue 2 killing – plate reader, single concentration, primary screen (AID 651640);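 further: 0% = median of neutral control wells and 100% = median of positive control wells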
# Settings: DENV2-infected cells, cytopathic effect rescue, at 9.99 µM, hits give high values
row,SMILES,CPE inhibition
1,C[C@H](CO)N1C[C@H](C)[C@@H](CN(C)C(=O)Nc2ccccc2)Oc2c(NC(=O)NC3CCCCC3)cccc2C1=O,active: 63.5%
2,Cc1cccc2c(N=NC(=O)c3ccc(NS(=O)(=O)c4cccs4)cc3)c(O)[nH]c12,inconclusive: 74.3%
3,COCC(=O)N(C)C[C@H]1Oc2ncc(C#CC(C)(C)O)cc2C(=O)N([C@H](C)CO)C[C@@H]1C,inactive: -4.77%
4,CC1(Oc2ccc(F)cc2)CCN(Cc2ccccc2OC(F)F)C1 (stereo unspecified),inconclusive: 44.3%
5,CCOc1ccc(NC(=O)C2CC(=O)N(c3ccc4c(c3)OCCO4)C2)cc1OCC (stereo unspecified),inconclusive: 27.4%
6,CC(C)NC(=O)N(C)C[C@@H]1Oc2ccc(NS(=O)(=O)c3ccc(Cl)cc3)cc2CC(=O)N([C@@H](C)CO)C[C@@H]1C,inconclusive: 41%
7,CCN(c1ccccc1)S(=O)(=O)c1ccc(OC)c(NC(=O)CN2C(=O)NC(C)(C)C2=O)c1,inconclusive: 34.3%
8,C[C@@H]1CCCCO[C@@H](CN(C)C(=O)c2ccccc2)[C@H](C)CN([C@@H](C)CO)C(=O)c2cc(NC(=O)Nc3ccccc3)ccc2O1,inactive: -9.74%
9,Cc1ccc(C(=O)OCC(=O)N(C)c2c(N)n(Cc3ccccc3)c(=O)[nH]c2=O)s1,active: 36.3%
10,Cc1noc(C)c1S(=O)(=O)N(C)C[C@@H]1OCCCC[C@H](C)Oc2ccc(NS(=O)(=O)c3ccc(Cl)cc3)cc2C(=O)N([C@H](C)CO)C[C@@H]1C,inconclusive: 43.6%
11,Cc1ccccc1C(=O)N1CCC(C(=O)NN2C(=O)NC3(CCCCC3)C2=O)CC1,inactive: -5.82%
12,CC1(C(=O)O)CCN1C(=O)/C=C/c1ccccc1 (stereo unspecified),inconclusive: 20.3%
13,C[C@@H]1CCCCO[C@H](CN(C)C(=O)CCC(F)(F)F)[C@H](C)CN([C@H](C)CO)C(=O)c2cc(NS(C)(=O)=O)ccc2O1,inconclusive: 65.6%
14,C[C@H](CO)N1C[C@H](C)[C@@H](CN(C)C(=O)Nc2ccc(C(F)(F)F)cc2)Oc2ncc(-c3cccnc3)cc2C1=O,active: 29.6%
15,COc1cccc(-c2c(-c3cc(OC)cc(OC)c3)n(C)c3ccc(-c4ccc5cc[nH]c5c4)cc23)c1,inconclusive: 31.3%
16,Cc1ccsc1C(=O)N/N=C/c1ccc2c(c1)OCO2,inconclusive: 64.6%
17,Cc1noc(C)c1NC(=O)N(C)C[C@H]1OCCCC[C@@H](C)Oc2ccc(NS(=O)(=O)c3cccs3)cc2C(=O)N([C@H](C)CO)C[C@@H]1C,inactive: -4.91%
18,CCC(=O)N(C)C[C@@H]1Oc2cc(C#CC3(O)CCCC3)ccc2S(=O)(=O)N([C@@H](C)CO)C[C@@H]1C,inconclusive: 26.5%
19,CCOc1cccc(C(=O)N/N=C/c2ccoc2)c1,inconclusive: 91.6%
20,CC=Cc1ccc2n(c1=O)C[C@H]1[C@H](CO)[C@@H](C(=O)N(C)C)N(C(=O)CC)[C@@H]21 (mixture of isomers),inactive: 16.3%
21,C[C@H]1CN([C@@H](C)CO)C(=O)Cc2cc(NS(C)(=O)=O)ccc2O[C@H]1CN(C)S(=O)(=O)c1cn(C)cn1,inconclusive: 32.4%
22,N#CCCc1cccc(CCC#N)c1,active: 120%
23,Cc1ccc(S(=O)(=O)N2CCOCC2)cc1NC(=O)COC(=O)c1cncc(Br)c1,inconclusive: 23.2%

row,SMILES,CPE inhibition
1,CO[C@@H]1CN(C)C(=O)c2cc(NS(C)(=O)=O)ccc2OC[C@H](C)N(C(=O)C2CCOCC2)C[C@@H]1C,inconclusive: 23.6%
2,COc1ccccc1NC(=S)NC(=O)CCc1ccccc1,inconclusive: 28%
3,COCc1[nH]nc2c1C(c1ccc(C)cc1)NC2=O (stereo unspecified),inconclusive: 28%
4,O=C(c1cccnc1)C1Cc2ccccc2C1=O (stereo unspecified),active: 48.8%
5,Cc1ccc(S(=O)(=O)N(CC(=O)N2CCC(C)CC2)c2ccccc2)cc1,inactive: 0.851%
6,COc1ccc(Cl)cc1NS(=O)(=O)c1cccc(C(=O)NCCCN2CCOCC2)c1,inconclusive: 30.5%
7,CN(Cc1nc2ccc(F)cc2[nH]1)C(=O)C1CCC(=O)N(C2CC2)C1 (stereo unspecified),inconclusive: 56.3%
8,O=C(C[C@H]1CC[C@H](NC(=O)C2CCOCC2)[C@H](CO)O1)Nc1ccccc1,inactive: -8.73%
9,COc1ccc(NC(=O)N(C)C[C@H]2Oc3c(NC(=O)C4CC4)cccc3C(=O)N([C@H](C)CO)C[C@H]2C)cc1,inactive: 1.26%
10,CCc1noc(C)c1C(=O)NNC(=O)c1ccccc1,inactive: -5%
11,CC1CCCC(C)N1C(=O)CN1C(=O)c2ccccc2S1(=O)=O (stereo unspecified),inconclusive: 24.2%
12,COc1ccc2c3c(n(C)c2c1)[C@H](CO)NCC31CN(Cc2ccc(F)cc2)C1,inactive: -0.816%
13,CCC(=O)N(C)C[C@@H]1Oc2ncc(C#C[C@@H](C)O)cc2C(=O)N([C@H](C)CO)C[C@@H]1C,inconclusive: 3.45%
14,COCOCCn1cc(CN2CCS(=O)(=O)N(Cc3ccc(-c4ccc(Cl)cc4)cc3)C(C)C2=O)nn1 (stereo unspecified),inactive: 9.33%
15,COc1ccc(C#Cc2ccc([C@H]3[C@@H](CO)N4CCCCN(C(=O)c5ccncc5)C[C@@H]34)cc2)cc1,active: 59.1%
16,C[C@H](CO)N1C[C@H](C)[C@@H](CN(C)S(=O)(=O)c2ccccc2)Oc2c(NC(=O)Nc3cccc4ccccc34)cccc2C1=O,active: 168%
17,COc1ccccc1N1C(=O)c2cccc3c(Cl)ccc(c23)C1=O,inconclusive: 22.8%
18,O=C(O)c1ccc(CSc2nnnn2-c2ccc(F)cc2)cc1,inconclusive: 51.7%
19,O=C([C@@H]1[C@@H](CO)[C@@H]2Cn3c(ccc(-c4ccccc4F)c3=O)[C@H]1N2C(=O)C1CCC1)N1CCOCC1,inactive: 3.14%
20,OC[C@@H]1[C@H](c2ccc(C#Cc3ccccc3)cc2)[C@@H]2CN(Cc3cncnc3)CCCCN12,inactive: 4.64%
21,O=S(=O)(NNc1ncc(C(F)(F)F)cc1Cl)c1ccc(F)cc1F,inconclusive: 26.5%
22,O=C1c2ccccc2C(=O)N1CC(=O)N1c2ccccc2Sc2ccccc21,inactive: 0.519%
23,NS(=O)(=O)c1cccc(NC(=O)CSc2nc3ccccc3[nH]2)c1,inconclusive: 31%
